Results taken from article PMC12040169 (PLOS Biology, 2025).
The other results are listed elsewhere or left out.

The molecules below were run on T1, CTL2-GFP (C. trachomatis L2/434/Bu, GFP-expressing). Details: bulk GFP, single well; 28.5 h, 10 µM; inhibitor.
T1 construct: L2/434/Bu, GFP-expressing
Design: species or system HeLa; Intracellular C. trachomatis growth in HeLa cells, bulk GFP fluorescence relative to DMSO

Structure (SMILES) | % of control remaining [%]
CSc1c(C#N)c(-c2cc(C(C)(C)C)on2)nn1C [CBK006360] | 126.04
CN1CCN(c2cc(-c3cccc(CO)c3)nc3ccnn23)CC1 [CBK037099] | 158.133
c1ccc(CCNc2nccnc2-c2ccoc2)nc1 [CBK036790] | 200.125
O=C1CC[C@@H](NCc2ccccc2O)[C@H](c2cc(F)cc(F)c2)N1 [CBK283126] | 86.5702
COc1ccccc1-c1nnc(SC)n1-c1ccc(C)cc1 [CBK076670] | 97.1202
CN1CCN(C(=O)c2ccc(Cl)cc2)CC1 [CBK126096] | 140.574
COc1ccc(C(=O)N[C@H]2CCN3C(=O)c4ccc(Cl)cc4NC(=O)[C@@H]3C2)cc1 [CBK289564] | 131.483
NC(=O)c1c(NC(=O)c2ccc(S(=O)(=O)N3CCCC3)cc2)sc2c1CCCC2 [CBK262486] | 93.0509
COc1ccc2c(c1)cc(C(=O)NCCN1CCCCC1CO)n2C (stereo not shown) [CBK306621] | 108.396
CC1=CC2=NC3(CCC3)[C@@H]3C[C@@H](O)[C@@H](O)[C@@H]3N2O1 [CBK303257] | 181.11
Cc1cc(C)n(C(C)CC(=O)N2CCN(C)CC2c2ccccc2)n1 (stereo not shown) [CBK282014] | 144.148
CCOc1ccc(CNc2ccc(C3c4ccsc4CCN3C(C)=O)cc2)cc1 (stereo not shown) [CBK286451] | 118.422
Cn1cc(-c2nc(C(=O)NCc3ccnc(N4CCCC4)c3)cs2)cn1 [CBK305666] | 121.95
CCOC(=O)Cc1ccc(Nc2cc(-c3ccc(N(C)C)cc3)ncn2)cc1 [CBK090712] | 150.425
Cc1ccc(CSCCNS(=O)(=O)c2ccc3ccccc3c2)cc1 [CBK268048] | 102.61
Cc1ccc(SC(C)C(=O)NCCCN2CCOCC2)cc1 (stereo not shown) [CBK268624] | 103.729
Cc1[nH]c2ccc(CNC(=O)NC3CCCc4cn[nH]c43)cc2c1C (stereo not shown) [CBK305488] | 152.056
Nc1nc(OCc2cccs2)cnc1-c1ccsc1 [CBK145161] | 107.986
O=C(/C=C(\c1ccccc1)n1cncn1)c1ccc(Cl)cc1 [CBK262089] | 112.697
COc1ccc(-c2nnc(SCC(=O)NN)n2-c2ccccc2)cc1 [CBK263157] | 119.835

Structure (SMILES) | % of control remaining [%]
O=C(O)c1cccc(NS(=O)(=O)c2cc3ccccc3o2)c1 [CBK200423] | 125.533
CCC(C)NC(=O)Cn1c(C2CCOCC2)cc2cccnc21 (stereo not shown) [CBK285390] | 104.349
O=C(O)CCC(=O)Nc1ccc(NC(=O)C2CCCCC2)c(Cl)c1 [CBK268867] | 166.26
CCc1n[nH]c(SCc2ccc(Br)cc2)n1 [CBK265221] | 88.9293
CC(C)(C)C1=CC2=NC3(CCC3)C3C[C@@](C)(O)[C@@H](O)[C@@H]3N2O1 (stereo partly shown) [CBK303263] | 109.231
COc1ccccc1C(=O)NCCNC(=O)c1ccccn1 [CBK269174] | 117.999
O=C(O)CN1C(=O)[C@@H]2Cc3ccccc3CN2C1=O [CBK202728] | 132.573
N#Cc1ccc(CN2CCC(NC3CCCn4nccc43)C2=O)cc1 (stereo not shown) [CBK304770] | 109.828
O=C(c1ccc(C#CC2(O)CCCCC2)cc1)N1CCN(Cc2ccccc2)CC1 [CBK263094] | 100
O=C(O)CC(NS(=O)(=O)c1cccc([N+](=O)[O-])c1)c1ccccc1 (stereo not shown) [CBK262641] | 115.28
COc1c(Br)cc(/C=C2\SC(=O)NC2=O)cc1Br [CBK102455] | 100
CCOc1ccc2ccccc2c1CNCCc1ccc(S(N)(=O)=O)cc1 [CBK268732C] | 134.64
CCN(CC)C(=O)CN1C(=O)N2CCCN=C2c2ccccc21 [CBK284398] | 142.827
COc1ccc2c(c1OC)C(=O)N(c1cccc(/C=C/C(=O)O)c1)C2 [CBK109932] | 141.491
O=C(O)CSc1ccc(Oc2ccc(SCC(=O)O)cc2)cc1 [CBK261254] | 100
c1ccc(CCN2CCC(N3CCOCC3)CC2)cc1 [CBK261928] | 124.798
O=C(NCc1csc2c1CCCC2)N1CCCC(c2cc(O)ncn2)C1 (stereo not shown) [CBK306705] | 103.606
CCc1cc(=O)oc2cc(OCC(=O)O)c(Cl)cc12 [CBK265182] | 100
NC(=O)CN1CCC(Oc2nccnc2OCc2ccc(Cl)c(Cl)c2)CC1 [CBK083110] | 103.168
CN1CCN(C(=O)c2sccc2NS(=O)(=O)c2ccc3ccccc3c2)CC1 [CBK004631] | 118.561

Reformatted as tab-separated lines: part of the list above
Structure (SMILES)	% of control remaining [%]
COc1c(Br)cc(/C=C2\SC(=O)NC2=O)cc1Br [CBK102455]	100
O=C(O)CSc1ccc(Oc2ccc(SCC(=O)O)cc2)cc1 [CBK261254]	100
